Where a name gives a salt, the structure may show the parent alone. The list shows a part of the results. Single values are uncertain here, since repeats match poorly.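 Free-swimming zebrafish larvae were scored for O-bend response probability to dark flashes (naive: first five; training: remaining flashes of four 60-flash blocks; test: later 60-flash block) and for turning toward alternating leftward/rightward LED motion (OMR). Six treated larvae were compared with sixty 0.1% DMSO controls; |SSMD|≥2 defined a hit.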
Key:
Conditions in all cases: 10 µM; pre-incubation: 30-90 min
[1] = test system: Danio rerio larvae (5 dpf, TLF); assay: OMR-Perf (SSMD vs DMSO vehicle); higher = higher than vehicle (e.g. higher dark-flash O-bend response probability, or better optomotor performance)
[2] = test system: Danio rerio larvae (5 dpf, TLF); assay: Prob-Test (SSMD vs DMSO vehicle); higher = higher than vehicle (e.g. higher dark-flash O-bend response probability, or better optomotor performance)
[3] = test system: Danio rerio larvae (5 dpf, TLF); assay: Prob-Naive (SSMD vs DMSO vehicle); higher = higher than vehicle (e.g. higher dark-flash O-bend response probability, or better optomotor performance)
[4] = test system: Danio rerio larvae (5 dpf, TLF); assay: Prob-Train (SSMD vs DMSO vehicle); higher = higher than vehicle (e.g. higher dark-flash O-bend response probability, or better optomotor performance)

Row | Compound | OMR-Perf [1] | Prob-Test [2] | Prob-Naive [3] | Prob-Train [4]
1 | COc1ccc(CCC(=O)Nc2nc3ccc(Cl)cc3s2)cc1OC | -0.562 | -1.44 | -0.517 | -1.72
2 | CN(Cc1cc(Br)cc(Br)c1N)C1CCCCC1.Cl [Bromhexine HCl] | -0.699 | -0.968 | -0.219 | -0.743
3 | CCCCOc1ccc(OCCCN2CCOCC2)cc1.Cl [Pramoxine HCl] | -0.154 | -1.79 | -1.65 | -2.22
4 | COc1cc2nc(N(C)CCCNC(=O)C3CCCO3)nc(N)c2cc1OC.Cl (stereo not given) [Alfuzosin HCl] | -0.136 | -0.00289 | 0.463 | 0.256
5 | Cc1cnc(-c2cc(N3CCN(C(=O)CCS(C)(=O)=O)CC3)ncc2Cl)c(C)c1 | -0.337 | -0.381 | -0.243 | -0.303
6 | CNCc1cc(-c2ccccc2F)n(S(=O)(=O)c2cccnc2)c1.O=C(O)/C=C/C(=O)O | -0.365 | -0.232 | -0.117 | 0.006
7 | COC(=O)c1ccc2c(c1)NC(=O)/C2=C(\Nc1ccc(N(C)C(=O)CN2CCN(C)CC2)cc1)c1ccccc1 [Nintedanib (BIBF 1120)] | 0.203 | 0.0507 | -0.686 | -0.56
8 | Nc1ccc(C(=O)[O-])c(O)c1.[Na+] [Sodium 4-Aminosalicylate] | -0.291 | -0.218 | 0 | -0.335
9 | CN1c2ccccc2C(=O)N2CCc3c([nH]c4ccccc34)C21 (stereo not given) [Evodiamine] | -0.864 | -1.38 | -0.311 | -0.74
10 | COc1cc2c(Oc3ccc4[nH]c(C)cc4c3F)ncnc2cc1OCCCN1CCCC1 [Cediranib (AZD2171)] | -0.121 | 0.198 | 0.35 | 0.134
11 | CCCCC(=O)N(Cc1ccc(-c2ccccc2-c2nn[nH]n2)cc1)[C@H](C(=O)O)C(C)C [Valsartan] | 0.487 | 0.0613 | -0.42 | -0.316
12 | Cl.O=C1CC2(CCCC2)CC(=O)N1CCCCN1CCN(c2ncccn2)CC1 [Buspirone HCl] | -0.505 | -1.17 | -0.0588 | -1.55
13 | N[C@@H](Cc1cc(I)c(Oc2ccc(O)c(I)c2)c(I)c1)C(=O)[O-].[Na+] [Liothyronine Sodium] | 0.0447 | -1.15 | -0.314 | -1.43
14 | CC1(C)O[C@@H]2C[C@H]3[C@@H]4CCC5=CC(=O)C=C[C@]5(C)[C@@H]4[C@H](O)C[C@]3(C)[C@@]2(C(=O)CO)O1 [Desonide] | 0.799 | -0.242 | -0.0365 | -0.245
15 | C[C@H]1C[C@H]2[C@@H]3CCC4=CC(=O)C=C[C@]4(C)[C@]3(F)[C@H](O)C[C@]2(C)[C@]1(O)C(=O)CO [Betamethasone] | 0.521 | -0.084 | -0.0365 | 0.389
16 | Cc1[nH]c(/C=C2\C(=O)Nc3ccccc32)c(C)c1CCC(=O)O [TSU-68 (SU6668, Orantinib)] | 0.449 | -0.127 | -0.25 | -0.514
17 | COc1cc(OC)c2c(=O)[nH]c(-c3cc(C)c(OCCO)c(C)c3)nc2c1 | -0.979 | -0.229 | 0 | -0.161
18 | Cc1ccc(C(=O)N(CCCN)[C@@H](c2nc3cc(Cl)ccc3c(=O)n2Cc2ccccc2)C(C)C)cc1 | 0.164 | -0.65 | 0.214 | -0.222
19 | O=NN(CCCl)C(=O)NC1CCCCC1 [Lomustine] | 0.477 | 0.257 | -0.538 | -0.644
20 | OCc1ccc(O[C@@H]2O[C@@H](CO)[C@@H](O)[C@H](O)[C@H]2O)cc1 [Gastrodin] | 0.684 | 0.426 | -0.0925 | 0.471
21 | CC(C)(C)NC[C@H](O)COc1nsnc1N1CCOCC1.O=C(O)/C=C/C(=O)O [Timolol Maleate] | -0.311 | 0.316 | -0.52 | -0.338
22 | Cn1cc(-c2ccc3nnc(Sc4ccc5ncccc5c4)n3n2)cn1 | -0.387 | -0.699 | -0.417 | -0.435
23 | CCC1=C[C@@H]2C[N@](C1)Cc1c([nH]c3ccccc13)[C@@](C(=O)OC)(c1cc3c(cc1OC)N(C)[C@H]1[C@@](O)(C(=O)OC)[C@H](OC(C)=O)[C@]4(CC)C=CCN5CC[C@@]31[C@H]54)C2 [Vinorelbine (Navelbine)] | 0.129 | 0.202 | 0.106 | -0.0161
24 | C=C[C@]1(C)C[C@@H](OC(=O)CSC(C)(C)CNC(=O)[C@H](N)C(C)C)[C@@]2(C)[C@H](C)CC[C@]3(CCC(=O)[C@H]32)[C@@H](C)[C@@H]1O.Cl [Valnemulin HCl] | -0.325 | 0.185 | -0.624 | -0.599
25 | Cc1c(C(=O)Nc2ccc(N3C[C@@H](C)O[C@@H](C)C3)nc2)cccc1-c1ccc(OC(F)(F)F)cc1 [LDE225 (NVP-LDE225,Erismodegib)] | -0.67 | -1.03 | 0.028 | -1.64

Single values from above:
Entry for CNCc1cc(-c2ccccc2F)n(S(=O)(=O)c2cccnc2)c1.O=C(O)/C=C/C(=O)O under Prob-Naive [3]: -0.117
Entry for COc1ccc(CCC(=O)Nc2nc3ccc(Cl)cc3s2)cc1OC under Prob-Naive [3]: -0.517
Entry for COc1cc2c(Oc3ccc4[nH]c(C)cc4c3F)ncnc2cc1OCCCN1CCCC1 [Cediranib (AZD2171)] under Prob-Naive [3]: 0.35

The results go on.

Row | Compound | OMR-Perf [1] | Prob-Test [2] | Prob-Naive [3] | Prob-Train [4]
26 | CCN(CC)CCOC(=O)C1(C2CCCCC2)CCCCC1 [Dicyclomine HCl] | 0.0152 | -0.336 | 0.298 | 0.509
27 | O=C(O)c1cccnc1 [Nicotinic Acid] | 0.195 | 0.0789 | -0.0365 | -0.182
28 | Nc1c(CC(=O)[O-])cccc1C(=O)c1ccccc1.O.[Na+] [Amfenac Sodium Monohydrate] | 0.0588 | 0.61 | 0.241 | 0.112
29 | CC(C)(C)c1cc(NC(=O)Nc2ccc(-c3cn4c(n3)sc3cc(OCCN5CCOCC5)ccc34)cc2)no1 [Quizartinib (AC220)] | 0.168 | 0.227 | 0.173 | -0.239
30 | CCOC(=O)c1ccc(NC2CCCCC2)c(N)c1 [Ferrostatin-1 (Fer-1)] | -0.0316 | -1.3 | -6.66 | -2.56
31 | Cl.c1ccc([C@H]2CN3CCSC3=N2)cc1 [(-)-Tetramisole] | 0.782 | 0.742 | -0.0794 | 0.883
32 | CN1CCC(=C2c3ccccc3CCc3cccnc32)CC1.O=C(O)C=CC(=O)O.O=C(O)C=CC(=O)O [Azatadine dimaleate] | -0.626 | 0.04 | 0.213 | -0.694
33 | Cl.O=C(O)Cc1cccc(OCCCN(Cc2cccc(C(F)(F)F)c2Cl)CC(c2ccccc2)c2ccccc2)c1 | 0.427 | 0.714 | 0.306 | -0.00657
34 | N#CSc1cc(SC#N)c(N)nc1N | -0.139 | -0.246 | 0.0934 | -0.881
35 | CCCCCCCCCCC[C@@H](C[C@@H]1OC(=O)[C@H]1CCCCCC)OC(=O)[C@H](CC(C)C)NC=O [Orlistat] | -0.155 | -0.0453 | 0.184 | 0.281
36 | CCn1cc(-c2ccnc3[nH]c(-c4cccc(CN(C)C)c4)cc23)c(-c2ccc(NC(=O)N(C)C)cc2)n1 | -0.716 | -0.126 | 0.289 | -0.387
37 | CCc1cccc2c3c([nH]c12)[C@](CC)(CC(=O)O)OCC3 [Etodolac] | 0.541 | -0.343 | 0.134 | -0.463
38 | COc1ccc2cc1Oc1ccc(cc1)C[C@H]1c3cc(c(OC)cc3CCN1C)Oc1c(OC)c(OC)cc3c1[C@@H](C2)N(C)CC3 [Tetrandrine] | 0.277 | 0.327 | 0.0551 | -0.314
39 | Cc1ccccc1C(C(=O)NC1CCCCC1)N(C(=O)Cn1ccnc1C)c1cccc(F)c1 (stereo not given) | -0.288 | 0.597 | 0.118 | -0.102
40 | CC(O)C1C(=O)N2C(C(=O)O)=C(SC3CNC(C(=O)N(C)C)C3)C(C)C12 (stereo not given) [Meropenem] | -0.159 | 0.709 | 0.549 | 0.694
41 | Oc1ccc(OC2CCCCO2)cc1 (stereo not given) [Deoxyarbutin] | -0.0497 | -0.227 | 0.7 | 0.0641
42 | CN(C)Cc1ccc(-c2nc3cccc4c3n2CCNC4=O)cc1 | -0.23 | 0.365 | 0.146 | 0.059
43 | O=C(O)c1ccc(Nc2ncc3c(n2)-c2ccc(Cl)cc2C(c2c(F)cccc2F)=NC3)cc1 | 0.0494 | -1.95 | -2.25 | -2.97
44 | CS(=O)(=O)CCNCc1ccc(-c2ccc3ncnc(Nc4ccc(OCc5cccc(F)c5)c(Cl)c4)c3c2)o1 [Lapatinib] | -0.279 | 0.0951 | -0.192 | -0.136
45 | CC(C)N(CCCNC(=O)Nc1ccc(C(C)(C)C)cc1)C[C@H]1O[C@@H](n2ccc3c(N)ncnc32)[C@H](O)[C@@H]1O | -0.0426 | 0.168 | 0.245 | 0.373
46 | CCc1ccc(OCc2ccccc2C(=O)Nc2ccc3nc(C)cc(N)c3c2)cc1.Cl | -0.578 | -0.197 | -0.678 | -0.434
47 | Cc1ccc(NC(=O)C2(c3ccc4c(c3)OC(F)(F)O4)CC2)nc1-c1cccc(C(=O)O)c1 [VX-809 (Lumacaftor)] | -0.31 | -0.721 | -0.95 | -1.28
48 | CC(Oc1c(Cl)cccc1Cl)C1=NCCN1.Cl (stereo not given) [Lofexidine HCl] | 0.269 | -0.419 | 0.298 | 0.229
49 | CC(=O)O[C@H]1C(=O)[C@@]2(C)C([C@H](OC(=O)c3ccccc3)[C@]3(O)C[C@H](OC(=O)[C@H](O)[C@@H](NC(=O)c4ccccc4)c4ccccc4)C(C)=C1C3(C)C)[C@]1(OC(C)=O)CO[C@@H]1C[C@H]2O (stereo not given in full) [Paclitaxel] | 0.144 | -0.323 | -0.15 | 0.104
50 | CN(CCOc1ccc(CC2SC(=O)NC2=O)cc1)c1ccccn1.Cl (stereo not given) [Rosiglitazone HCl] | 0.603 | -1.63 | 0.507 | -1.62

— the supplement of paper PMC10727501
